Reference: the supplement of paper PMC8728848
This is one part of the list.

Tests used:
Test in all cases: glycan array binding signal (z-score within array); higher = stronger binding
Conditions in all cases: glycan notation: IUPAC condensed, linker removed
GalNAc(b1-3)Gal = biological target: GalNAc(b1-3)Gal
Summary of the method: (§1)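 Glycan array data came from 3228 arrays in the Consortium for Functional Glycomics database, and only arrays with an available protein sequence were kept. Glycan names were put into IUPAC-condensed notation, and columns mapping to the same glycan were averaged. The binding signal is a within-array Z-score, averaged across arrays of one protein sequence run at different concentrations or buffers and across linkers. A negative Z-score can be read as non-binding.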

[1] = biological target: GalNAc(b1-3)Gal(a1-4)Gal(b1-4)GlcNAc
Summary of the method: as §1

[2] = biological target: GalNAc(b1-3)Gal(a1-4)Gal(b1-4)GlcNAc(b1-3)Gal(b1-4)Glc
Summary of the method: as §1

[3] = biological target: GalNAc(b1-3)Gal(a1-6)Gal(b1-4)Glc
Summary of the method: as §1

GalNAc(b1-3)GalNAc = biological target: GalNAc(b1-3)GalNAc
Summary of the method: as §1

GalNAc(b1-4)Gal(b1-4)Glc = biological target: GalNAc(b1-4)Gal(b1-4)Glc
Summary of the method: as §1

GalNAc(b1-4)GlcNAc = biological target: GalNAc(b1-4)GlcNAc
Summary of the method: as §1

[4] = biological target: GalNAc(b1-4)GlcNAc(b1-2)Man(a1-3)[GalNAc(b1-4)GlcNAc(b1-2)Man(a1-6)]Man(b1-4)GlcNAc(b1-4)GlcNAc
Summary of the method: as §1

GalNAc(b1-6)GalNAc = biological target: GalNAc(b1-6)GalNAc
Summary of the method: as §1

Glc(a1-4)Glc = biological target: Glc(a1-4)Glc
Summary of the method: as §1

[5] = biological target: Glc(a1-4)Glc(a1-4)Glc(a1-4)Glc
Summary of the method: as §1

Glc(a1-6)Glc(a1-6)Glc = biological target: Glc(a1-6)Glc(a1-6)Glc
Summary of the method: as §1

[6] = biological target: Glc(a1-6)Glc(a1-6)Glc(a1-6)Glc
Summary of the method: as §1

Glc(b1-4)Glc = biological target: Glc(b1-4)Glc
Summary of the method: as §1

Glc(b1-6)Glc = biological target: Glc(b1-6)Glc
Summary of the method: as §1

GlcA(b1-3)Gal = biological target: GlcA(b1-3)Gal
Summary of the method: as §1

GlcA(b1-3)GlcNAc = biological target: GlcA(b1-3)GlcNAc
Summary of the method: as §1

GlcA(b1-6)Gal = biological target: GlcA(b1-6)Gal
Summary of the method: as §1

[7] = biological target: GlcNAc(a1-3)Gal(b1-4)GlcNAc
Summary of the method: as §1

[8] = biological target: GlcNAc(a1-4)Gal(b1-3)GlcNAc
Summary of the method: as §1

[9] = biological target: GlcNAc(a1-4)Gal(b1-4)GalNAc
Summary of the method: as §1

[10] = biological target: GlcNAc(a1-4)Gal(b1-4)GlcNAc
Summary of the method: as §1

[11] = biological target: GlcNAc(a1-4)Gal(b1-4)GlcNAc(b1-3)Gal(b1-4)Glc
Summary of the method: as §1

[12] = biological target: GlcNAc(a1-4)Gal(b1-4)GlcNAc(b1-3)Gal(b1-4)GlcNAc
Summary of the method: as §1

[13] = biological target: GlcNAc(a1-4)Gal(b1-4)GlcNAc(b1-3)Gal(b1-4)GlcNAc(b1-3)Gal(b1-4)GlcNAc
Summary of the method: as §1

[14] = biological target: GlcNAc(a1-4)Gal(b1-4)GlcNAc(b1-3)Gal(b1-4)[Fuc(a1-3)]GlcNAc(b1-3)Gal(b1-4)[Fuc(a1-3)]GlcNAc
Summary of the method: as §1

[15] = biological target: GlcNAc(a1-6)Gal(b1-4)GlcNAc
Summary of the method: as §1

[16] = biological target: GlcNAc(b1-2)Gal(b1-3)GalNAc
Summary of the method: as §1

[17] = biological target: GlcNAc(b1-2)Man(a1-3)[GlcNAc(b1-2)Man(a1-6)]Man(b1-4)GlcNAc(b1-4)GlcNAc
Summary of the method: as §1

[18] = biological target: GlcNAc(b1-2)Man(a1-3)[GlcNAc(b1-2)Man(a1-6)]Man(b1-4)GlcNAc(b1-4)[Fuc(a1-6)]GlcNAc
Summary of the method: as §1

[19] = biological target: GlcNAc(b1-2)Man(a1-3)[GlcNAc(b1-4)][GlcNAc(b1-2)Man(a1-6)]Man(b1-4)GlcNAc(b1-4)GlcNAc
Summary of the method: as §1

[20] = biological target: GlcNAc(b1-2)[GlcNAc(b1-4)]Man(a1-3)[GlcNAc(b1-2)Man(a1-6)]Man(b1-4)GlcNAc(b1-4)GlcNAc
Summary of the method: as §1

[21] = biological target: GlcNAc(b1-2)[GlcNAc(b1-4)]Man(a1-3)[GlcNAc(b1-4)][GlcNAc(b1-2)Man(a1-6)]Man(b1-4)GlcNAc(b1-4)GlcNAc
Summary of the method: as §1

[22] = biological target: GlcNAc(b1-2)[GlcNAc(b1-4)]Man(a1-3)[GlcNAc(b1-4)][GlcNAc(b1-2)[GlcNAc(b1-6)]Man(a1-6)]Man(b1-4)GlcNAc(b1-4)GlcNAc
Summary of the method: as §1

[23] = biological target: GlcNAc(b1-2)[GlcNAc(b1-6)]Man(a1-6)[GlcNAc(b1-2)Man(a1-3)]Man(b1-4)GlcNAc(b1-4)GlcNAc
Summary of the method: as §1

[24] = biological target: GlcNAc(b1-2)[GlcNAc(b1-6)]Man(a1-6)[GlcNAc(b1-2)Man(a1-3)][GlcNAc(b1-4)]Man(b1-4)GlcNAc(b1-4)GlcNAc
Summary of the method: as §1

GlcNAc(b1-3)Gal = biological target: GlcNAc(b1-3)Gal
Summary of the method: as §1

[25] = biological target: GlcNAc(b1-3)Gal(b1-3)GalNAc
Summary of the method: as §1

B1: PGP3 (Chlamydia trachomatis), P0CE18 (protein)
chain: MGNSGFYLYNTQNCVFADNIKVGQMTEPLKDQQIILGTTSTPVAAKMTASDGISLTVSNNPSTNASITIGLDAEKAYQLILEKLGDQILGGIADTIVDSTVQDILDKITTDPSLGLLKAFNNFPITNKIQCNGLFTPRNIETLLGGTEIGKFTVTPKSSGSMFLVSADIIASRMEGGVVLALVREGDSKPYAISYGYSSGVPNLCSLRTRIINTGLTPTTYSLRVGGLESGVVWVNALSNGNDILGITNTSNVSFLEVIPQTNA
glycan array binding signal (z-score) (GalNAc(b1-3)Gal): 0.914 | glycan array binding signal (z-score) [1]: 1.66 | glycan array binding signal (z-score) [2]: 1.09 | glycan array binding signal (z-score) [3]: 2.89 | glycan array binding signal (z-score) (GalNAc(b1-3)GalNAc): -0.361 | glycan array binding signal (z-score) (GalNAc(b1-4)Gal(b1-4)Glc): -0.491 | glycan array binding signal (z-score) (GalNAc(b1-4)GlcNAc): -0.87 | glycan array binding signal (z-score) [4]: -0.407 | glycan array binding signal (z-score) (GalNAc(b1-6)GalNAc): 0.114 | glycan array binding signal (z-score) (Glc(a1-4)Glc): -0.334 | glycan array binding signal (z-score) [5]: 0.478 | glycan array binding signal (z-score) (Glc(a1-6)Glc(a1-6)Glc): -0.679 | glycan array binding signal (z-score) [6]: 0.029 | glycan array binding signal (z-score) (Glc(b1-4)Glc): -0.619 | glycan array binding signal (z-score) (Glc(b1-6)Glc): -1.12 | glycan array binding signal (z-score) (GlcA(b1-3)Gal): -0.25 | glycan array binding signal (z-score) (GlcA(b1-3)GlcNAc): -0.301 | glycan array binding signal (z-score) (GlcA(b1-6)Gal): 0.571 | glycan array binding signal (z-score) [7]: -0.427 | glycan array binding signal (z-score) [8]: -1.85 | glycan array binding signal (z-score) [9]: 0.374 | glycan array binding signal (z-score) [10]: 0.292 | glycan array binding signal (z-score) [11]: -0.567 | glycan array binding signal (z-score) [12]: 1.53 | glycan array binding signal (z-score) [13]: -0.435 | glycan array binding signal (z-score) [14]: 0.557 | glycan array binding signal (z-score) [15]: -0.513 | glycan array binding signal (z-score) [16]: 0.544 | glycan array binding signal (z-score) [17]: -0.357 | glycan array binding signal (z-score) [18]: -0.708 | glycan array binding signal (z-score) [19]: 0.515 | glycan array binding signal (z-score) [20]: 0.569 | glycan array binding signal (z-score) [21]: 0.875 | glycan array binding signal (z-score) [22]: 0.351 | glycan array binding signal (z-score) [23]: 0.545 | glycan array binding signal (z-score) [24]: 0.951 | glycan array binding signal (z-score) (GlcNAc(b1-3)Gal): 0.03 | glycan array binding signal (z-score) [25]: -0.07
